The results in this text go back to paper PMC10501187.

By UniProt entry, the sequences of proteins in these tests, tags left out.
UniProt O95166: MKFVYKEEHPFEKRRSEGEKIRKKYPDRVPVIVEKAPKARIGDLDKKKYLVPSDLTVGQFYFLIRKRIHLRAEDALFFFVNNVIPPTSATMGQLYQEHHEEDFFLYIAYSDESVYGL
UniProt P60520: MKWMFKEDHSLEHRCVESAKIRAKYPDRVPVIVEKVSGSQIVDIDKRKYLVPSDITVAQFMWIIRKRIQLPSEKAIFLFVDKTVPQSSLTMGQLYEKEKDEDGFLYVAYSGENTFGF

Common to all, as to experiment: pull-down; purified GST-ATG8 family protein on GSH beads incubated with HEK293T lysates overexpressing HA-tagged ORP8, ORP8 mutants or ORP5; NP-40 buffer, 4°C, 2 h; Western blot; in Fig. 5G/H the cells were glucose- and serum-starved for 6 h; only the target purified
Experiment [1] deals with GST-GABARAP (UniProt O95166).
In another experiment the target is GST-GABARAPL2 (UniProt P60520).
For the next experiment, the target named is GST-LC3A (UniProt Q9H492).
For experiment [2], the target named is GST-GABARAP (UniProt O95166). The source holds these as a separate data set.

Where two headings read alike, the source gives them in different places. Results are given in words; binding and its absence hold for the method and conditions named. In cells and extracts the contact can be indirect. Some entries that bind do so weakly or less than the wild type.

Consider HA-ORP8 (from UniProt Q9BZF1 1-889), for which the binding result in the experiment with GST-GABARAP [1], with GST-GABARAPL2 and in the experiment with GST-LC3A was “binds” in each case.

B1: ORP8-T54A (protein, UniProt Q9BZF1 1-889)
chain: MEGGLADGEPDRTSLLGDSKDVLGPSTVVANSDESQLLTPGKMSQRQGKEAYPAPTKDLHQPSLSPASPHSQGFERGKEDISQNKDESSLSMSKSKSESKLYNGSEKDSSTSSKLTKKESLKVQKKNYREEKKRATKELLSTITDPSVIVMADWLKIRGTLKSWTKLWCVLKPGVLLIYKTQKNGQWVGTVLLNACEIIERPSKKDGFCFKLFHPLEQSIWAVKGPKGEAVGSITQPLPSSYLIIRATSESDGRCWMDALELALKCSSLLKRTMIREGKEHDLSVSSDSTHVTFYGLLRANNLHSGDNFQLNDSEIERQHFKDQDMYSDKSDKENDQEHDESDNEVMGKSEESDTDTSERQDDSYIEPEPVEPLKETTYTEQSHEELGEAGEASQTETVSEENKSLIWTLLKQVRPGMDLSKVVLPTFILEPRSFLDKLSDYYYHADFLSEAALEENPYFRLKKVVKWYLSGFYKKPKGLKKPYNPILGETFRCLWIHPRTNSKTFYIAEQVSHHPPISAFYVSNRKDGFCLSGSILAKSKFYGNSLSAILEGEARLTFLNRGEDYVMTMPYAHCKGILYGTMTLELGGTVNITCQKTGYSAILEFKLKPFLGSSDCVNQISGKLKLGKEVLATLEGHWDSEVFITDKKTDNSEVFWNPTPDIKQWRLIRHTVKFEEQGDFESEKLWQRVTRAINAKDQTEATQEKYVLEEAQRQAARDRKTKNEEWSCKLFELDPLTGEWHYKFADTRPWDPLNDMIQFEKDGVIQTKVKHRTPMVSVPKMKHKPTRQQKKVAKGYSSPEPDIQDSSGSEAQSVKPSTRRKKGIELGDIQSSIESIKQTQEEIKRNIMALRNHLVSSTPATDYFLQQKDYFIIFLLILLQVIINFMFK
For B1, the binding entry with GST-GABARAP [2] is recorded as “binds”.

B2: ORP8-S65A (protein, UniProt Q9BZF1 1-889)
chain: MEGGLADGEPDRTSLLGDSKDVLGPSTVVANSDESQLLTPGKMSQRQGKEAYPTPTKDLHQPSLAPASPHSQGFERGKEDISQNKDESSLSMSKSKSESKLYNGSEKDSSTSSKLTKKESLKVQKKNYREEKKRATKELLSTITDPSVIVMADWLKIRGTLKSWTKLWCVLKPGVLLIYKTQKNGQWVGTVLLNACEIIERPSKKDGFCFKLFHPLEQSIWAVKGPKGEAVGSITQPLPSSYLIIRATSESDGRCWMDALELALKCSSLLKRTMIREGKEHDLSVSSDSTHVTFYGLLRANNLHSGDNFQLNDSEIERQHFKDQDMYSDKSDKENDQEHDESDNEVMGKSEESDTDTSERQDDSYIEPEPVEPLKETTYTEQSHEELGEAGEASQTETVSEENKSLIWTLLKQVRPGMDLSKVVLPTFILEPRSFLDKLSDYYYHADFLSEAALEENPYFRLKKVVKWYLSGFYKKPKGLKKPYNPILGETFRCLWIHPRTNSKTFYIAEQVSHHPPISAFYVSNRKDGFCLSGSILAKSKFYGNSLSAILEGEARLTFLNRGEDYVMTMPYAHCKGILYGTMTLELGGTVNITCQKTGYSAILEFKLKPFLGSSDCVNQISGKLKLGKEVLATLEGHWDSEVFITDKKTDNSEVFWNPTPDIKQWRLIRHTVKFEEQGDFESEKLWQRVTRAINAKDQTEATQEKYVLEEAQRQAARDRKTKNEEWSCKLFELDPLTGEWHYKFADTRPWDPLNDMIQFEKDGVIQTKVKHRTPMVSVPKMKHKPTRQQKKVAKGYSSPEPDIQDSSGSEAQSVKPSTRRKKGIELGDIQSSIESIKQTQEEIKRNIMALRNHLVSSTPATDYFLQQKDYFIIFLLILLQVIINFMFK
Take B2: in the experiment with GST-GABARAP [2], the binding entry is recorded as “binds”.

B3: ORP8-T54A/S65A (protein, UniProt Q9BZF1 1-889)
chain: MEGGLADGEPDRTSLLGDSKDVLGPSTVVANSDESQLLTPGKMSQRQGKEAYPAPTKDLHQPSLAPASPHSQGFERGKEDISQNKDESSLSMSKSKSESKLYNGSEKDSSTSSKLTKKESLKVQKKNYREEKKRATKELLSTITDPSVIVMADWLKIRGTLKSWTKLWCVLKPGVLLIYKTQKNGQWVGTVLLNACEIIERPSKKDGFCFKLFHPLEQSIWAVKGPKGEAVGSITQPLPSSYLIIRATSESDGRCWMDALELALKCSSLLKRTMIREGKEHDLSVSSDSTHVTFYGLLRANNLHSGDNFQLNDSEIERQHFKDQDMYSDKSDKENDQEHDESDNEVMGKSEESDTDTSERQDDSYIEPEPVEPLKETTYTEQSHEELGEAGEASQTETVSEENKSLIWTLLKQVRPGMDLSKVVLPTFILEPRSFLDKLSDYYYHADFLSEAALEENPYFRLKKVVKWYLSGFYKKPKGLKKPYNPILGETFRCLWIHPRTNSKTFYIAEQVSHHPPISAFYVSNRKDGFCLSGSILAKSKFYGNSLSAILEGEARLTFLNRGEDYVMTMPYAHCKGILYGTMTLELGGTVNITCQKTGYSAILEFKLKPFLGSSDCVNQISGKLKLGKEVLATLEGHWDSEVFITDKKTDNSEVFWNPTPDIKQWRLIRHTVKFEEQGDFESEKLWQRVTRAINAKDQTEATQEKYVLEEAQRQAARDRKTKNEEWSCKLFELDPLTGEWHYKFADTRPWDPLNDMIQFEKDGVIQTKVKHRTPMVSVPKMKHKPTRQQKKVAKGYSSPEPDIQDSSGSEAQSVKPSTRRKKGIELGDIQSSIESIKQTQEEIKRNIMALRNHLVSSTPATDYFLQQKDYFIIFLLILLQVIINFMFK
For B3, the binding result with GST-GABARAP [2] is given as “binds”.
